Key:
[1] = test system: amnesia induced by scopolamine; assay: Multiple-trial passive avoidance: mnemic retention (amnesia induced by scopolamine); conditions: scopolamine alone
Procedure: To this end, the method of multiple-trial passive avoidance has been used. This method is well-known for evaluating the effects which a product exerts on the memory and learning (A. FINE et al., Proc. Natl. Acad. Sci. U.S.A., 82, (1985), 5227-5230).
The test is carried out on male Sprague-Dawley rats (160-200 g). which are kept in standard cages throughout the experiment.
The apparatus used is a transparent square cage with 35 cm sides and 25 cm high, fitted with a grid floor which can be electrified. An insulating rubber mat (10×17 cm) is placed on the floor in one of the corners of the cage.
Each animal is subjected to four tests at times 0, 4, 24 and 28 hours. In the first test (time 0), the animal is placed on the rubber mat and the time which it takes to decide to leave this position to explore the cage is recorded. After 20 seconds of exploration, the rat receives an electric shock (3 seconds duration) in the paws, causing a flight reaction. The rat is immediately removed from the apparatus and replaced in its original cage. In the course of the three subsequent tests (times: 4, 24 and 28 hours), the animal is replaced on the rubber mat and the time taken to leave this position is recorded. […]
The differences observed are analyzed statistically by the Mann-Whitney method.

[2] = test system: effects of scopolamine on the EEG, band from 6.4 to 9.6 Hz; assay: Inhibition of the effects of scopolamine on the electroencephalogram (EEG); type: in vivo, rats (male albino Sprague-Dawley SPF); conditions: scopolamine 0.5 mg/kg i.p. in rats; in words
Procedure: Male albino Sprague-Dawley SPF rats (160 to 200 g) are used in this test.
When the animals are 3 months old, 5 cortical electrodes are implanted permanently, aseptically and under a general anesthesia: one inert electrode, one left and one right frontal electrode, and one left and one right occipital electrode (P. ETEVENON, loc. cit.).
The test is carried out when the animals are about 15 months old. In the meantime, the animals are kept in individual cages. They are given water and food ad libitum and are subjected to a regular daily cycle comprising a period of darkness between 6 o'clock in the evening and 6 o'clock in the morning. […] The products are administered immediately before the EEG is recorded.
The rats are divided into groups of 8 animals and 16 samples of the EEG spectra are recorded over 5 seconds (two EEG spectra per animal). The spectra obtained are then analyzed by computer (rapid Fourier transform), which enables the average of the 16 measurements performed to be determined for each group and the overall intensity of the EEG spectrum and the distribution of this intensity (in %) in the various frequency bands to be deduced for each animal. […]

Structure (SMILES): CN1[C@@H]2C[C@@H](OC(=O)[C@H](CO)c3ccccc3)C[C@H]1[C@@H]1O[C@@H]12 [scopolamine]
- period of remaining on the mat, group 3, summary [1]: < 180 s
- effect on the EEG spectrum [2]: an increase in the intensity in the band at 8 Hz, a reduction in the intensity of the bands from 20.8 to 40 Hz and an increase in the overall intensity of the EEG spectrum

— US4956363A, “Treatment of cognitive and behavioral disorders associated with aging and with dementia syndromes” (U C B S.A., priority 1988, dated 1990)
